Results are given in words; binding and its absence hold for the method and conditions named. Binding seen in cells or lysates may run through a third protein. These calls come from enrichment with a bait or labelling near it, and not all partners need be listed. Where a sequence is shown, tags or fusion partners need not be part of it.
Target: T1, SBP-HA-CBP-KCTD7 (human KCTD7 fused to streptavidin- and calmodulin-binding peptides separated by an HA tag) (human) (UniProt Q96MP8)
T1 sequence: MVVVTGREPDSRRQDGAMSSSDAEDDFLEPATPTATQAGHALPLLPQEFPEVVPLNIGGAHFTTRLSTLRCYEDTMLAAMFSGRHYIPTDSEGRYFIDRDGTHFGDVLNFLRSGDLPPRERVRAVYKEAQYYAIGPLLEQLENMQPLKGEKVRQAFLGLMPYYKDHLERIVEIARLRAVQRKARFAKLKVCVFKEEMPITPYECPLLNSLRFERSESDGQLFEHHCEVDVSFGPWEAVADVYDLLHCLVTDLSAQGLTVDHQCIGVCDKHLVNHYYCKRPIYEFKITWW
Assay: affinity purification with mass spectrometry; tandem affinity purification (streptavidin resin, biotin elution, then calmodulin resin) of SBP-HA-CBP-KCTD7 from stable HEK293 cells; lysis in 10% glycerol, 50 mM HEPES-KOH pH 8.0, 100 mM KCl, 2 mM EDTA, 0.1% NP-40, 2 mM DTT; on-bead trypsin digest, nanoLC-MS/MS

binding: binds
B1: CAPNS1 (regulatory subunit of m-calpain and μ-calpain; endogenous, HEK293) (protein, UniProt P04632 1-268)
chain: MFLVNSFLKGGGGGGGGGGGLGGGLGNVLGGLISGAGGGGGGGGGGGGGGGGGGGGTAMRILGGVISAISEAAAQYNPEPPPPRTHYSNIEANESEEVRQFRRLFAQLAGDDMEVSATELMNILNKVVTRHPDLKTDGFGIDTCRSMVAVMDSDTTGKLGFEEFKYLWNNIKRWQAIYKQFDTDRSGTICSSELPGAFEAAGFHLNEHLYNMIIRRYSDESGNMDFDNFISCLVRLDAMFRAFKSLDKDGTGQIQVNIQEWLQLTMYS
